No constants are given. Whether binding was seen depends on the method and setting. Binding seen in cells or lysates may run through a third protein. A yes stands for co-enrichment or nearness to the bait. Other partners may have been found. For some of these results: Tags and fused reporters may be left off the sequences shown.
T1: SF-TAP tagged CCDC66 (UniProt A2RUB6)
T1 sequence: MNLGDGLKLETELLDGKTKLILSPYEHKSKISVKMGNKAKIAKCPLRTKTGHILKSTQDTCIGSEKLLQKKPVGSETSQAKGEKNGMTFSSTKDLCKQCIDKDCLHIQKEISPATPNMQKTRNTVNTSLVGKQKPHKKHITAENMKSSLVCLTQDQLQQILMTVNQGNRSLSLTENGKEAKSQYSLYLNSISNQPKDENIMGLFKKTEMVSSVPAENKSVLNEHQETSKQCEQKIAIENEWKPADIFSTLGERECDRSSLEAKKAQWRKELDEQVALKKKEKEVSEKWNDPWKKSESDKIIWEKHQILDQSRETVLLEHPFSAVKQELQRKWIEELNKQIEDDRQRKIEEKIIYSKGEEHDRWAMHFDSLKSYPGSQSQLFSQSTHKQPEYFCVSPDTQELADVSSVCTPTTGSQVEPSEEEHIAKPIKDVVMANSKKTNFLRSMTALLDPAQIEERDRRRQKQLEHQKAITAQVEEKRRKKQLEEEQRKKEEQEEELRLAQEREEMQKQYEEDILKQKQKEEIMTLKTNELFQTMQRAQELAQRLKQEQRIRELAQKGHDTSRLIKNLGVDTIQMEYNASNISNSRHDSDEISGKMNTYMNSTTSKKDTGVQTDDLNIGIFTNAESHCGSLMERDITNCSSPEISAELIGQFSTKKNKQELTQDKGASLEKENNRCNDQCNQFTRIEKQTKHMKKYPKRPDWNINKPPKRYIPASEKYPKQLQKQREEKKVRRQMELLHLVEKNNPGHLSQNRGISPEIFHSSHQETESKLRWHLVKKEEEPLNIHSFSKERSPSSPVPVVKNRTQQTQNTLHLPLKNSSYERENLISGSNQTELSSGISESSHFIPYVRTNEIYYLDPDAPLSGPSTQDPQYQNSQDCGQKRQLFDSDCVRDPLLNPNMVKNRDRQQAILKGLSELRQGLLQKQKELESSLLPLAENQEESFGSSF

Protein sequences, listed by entry. Tags and fused reporters are not part of them.
UniProt Q1MSJ5: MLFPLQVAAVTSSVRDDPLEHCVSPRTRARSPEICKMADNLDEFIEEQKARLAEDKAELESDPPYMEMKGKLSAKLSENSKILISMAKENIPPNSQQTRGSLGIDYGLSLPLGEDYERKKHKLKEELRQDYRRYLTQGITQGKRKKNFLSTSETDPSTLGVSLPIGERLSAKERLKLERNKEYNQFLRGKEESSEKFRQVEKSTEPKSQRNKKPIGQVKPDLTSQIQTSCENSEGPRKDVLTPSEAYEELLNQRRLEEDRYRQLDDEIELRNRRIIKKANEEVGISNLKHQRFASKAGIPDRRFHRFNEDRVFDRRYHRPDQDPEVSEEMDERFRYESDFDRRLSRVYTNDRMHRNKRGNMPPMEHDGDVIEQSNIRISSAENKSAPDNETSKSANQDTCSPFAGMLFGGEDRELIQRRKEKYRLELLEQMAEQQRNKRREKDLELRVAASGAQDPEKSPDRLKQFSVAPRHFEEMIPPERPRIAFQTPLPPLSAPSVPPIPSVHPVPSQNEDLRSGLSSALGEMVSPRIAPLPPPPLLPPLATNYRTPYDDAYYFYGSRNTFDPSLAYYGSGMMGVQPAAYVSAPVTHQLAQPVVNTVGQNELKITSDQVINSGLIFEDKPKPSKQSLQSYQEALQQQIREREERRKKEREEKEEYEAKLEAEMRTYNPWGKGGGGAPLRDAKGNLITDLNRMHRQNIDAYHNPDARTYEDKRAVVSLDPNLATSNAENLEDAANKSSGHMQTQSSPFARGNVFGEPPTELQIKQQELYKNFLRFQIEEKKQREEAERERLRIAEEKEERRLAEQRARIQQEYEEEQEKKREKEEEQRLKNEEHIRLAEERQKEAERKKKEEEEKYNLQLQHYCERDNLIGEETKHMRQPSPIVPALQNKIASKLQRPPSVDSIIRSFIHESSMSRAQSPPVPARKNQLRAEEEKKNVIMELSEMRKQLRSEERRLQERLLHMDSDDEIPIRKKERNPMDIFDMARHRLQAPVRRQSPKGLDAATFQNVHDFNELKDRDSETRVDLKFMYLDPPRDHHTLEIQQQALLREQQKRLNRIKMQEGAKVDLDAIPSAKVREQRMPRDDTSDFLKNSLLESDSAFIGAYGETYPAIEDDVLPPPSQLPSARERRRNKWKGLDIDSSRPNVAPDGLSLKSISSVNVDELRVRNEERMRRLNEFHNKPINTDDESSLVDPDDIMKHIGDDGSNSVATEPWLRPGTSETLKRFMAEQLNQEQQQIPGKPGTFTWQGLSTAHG
UniProt P63167: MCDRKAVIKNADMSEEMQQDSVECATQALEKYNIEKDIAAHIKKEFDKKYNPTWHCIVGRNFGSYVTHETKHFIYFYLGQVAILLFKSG
UniProt O15078: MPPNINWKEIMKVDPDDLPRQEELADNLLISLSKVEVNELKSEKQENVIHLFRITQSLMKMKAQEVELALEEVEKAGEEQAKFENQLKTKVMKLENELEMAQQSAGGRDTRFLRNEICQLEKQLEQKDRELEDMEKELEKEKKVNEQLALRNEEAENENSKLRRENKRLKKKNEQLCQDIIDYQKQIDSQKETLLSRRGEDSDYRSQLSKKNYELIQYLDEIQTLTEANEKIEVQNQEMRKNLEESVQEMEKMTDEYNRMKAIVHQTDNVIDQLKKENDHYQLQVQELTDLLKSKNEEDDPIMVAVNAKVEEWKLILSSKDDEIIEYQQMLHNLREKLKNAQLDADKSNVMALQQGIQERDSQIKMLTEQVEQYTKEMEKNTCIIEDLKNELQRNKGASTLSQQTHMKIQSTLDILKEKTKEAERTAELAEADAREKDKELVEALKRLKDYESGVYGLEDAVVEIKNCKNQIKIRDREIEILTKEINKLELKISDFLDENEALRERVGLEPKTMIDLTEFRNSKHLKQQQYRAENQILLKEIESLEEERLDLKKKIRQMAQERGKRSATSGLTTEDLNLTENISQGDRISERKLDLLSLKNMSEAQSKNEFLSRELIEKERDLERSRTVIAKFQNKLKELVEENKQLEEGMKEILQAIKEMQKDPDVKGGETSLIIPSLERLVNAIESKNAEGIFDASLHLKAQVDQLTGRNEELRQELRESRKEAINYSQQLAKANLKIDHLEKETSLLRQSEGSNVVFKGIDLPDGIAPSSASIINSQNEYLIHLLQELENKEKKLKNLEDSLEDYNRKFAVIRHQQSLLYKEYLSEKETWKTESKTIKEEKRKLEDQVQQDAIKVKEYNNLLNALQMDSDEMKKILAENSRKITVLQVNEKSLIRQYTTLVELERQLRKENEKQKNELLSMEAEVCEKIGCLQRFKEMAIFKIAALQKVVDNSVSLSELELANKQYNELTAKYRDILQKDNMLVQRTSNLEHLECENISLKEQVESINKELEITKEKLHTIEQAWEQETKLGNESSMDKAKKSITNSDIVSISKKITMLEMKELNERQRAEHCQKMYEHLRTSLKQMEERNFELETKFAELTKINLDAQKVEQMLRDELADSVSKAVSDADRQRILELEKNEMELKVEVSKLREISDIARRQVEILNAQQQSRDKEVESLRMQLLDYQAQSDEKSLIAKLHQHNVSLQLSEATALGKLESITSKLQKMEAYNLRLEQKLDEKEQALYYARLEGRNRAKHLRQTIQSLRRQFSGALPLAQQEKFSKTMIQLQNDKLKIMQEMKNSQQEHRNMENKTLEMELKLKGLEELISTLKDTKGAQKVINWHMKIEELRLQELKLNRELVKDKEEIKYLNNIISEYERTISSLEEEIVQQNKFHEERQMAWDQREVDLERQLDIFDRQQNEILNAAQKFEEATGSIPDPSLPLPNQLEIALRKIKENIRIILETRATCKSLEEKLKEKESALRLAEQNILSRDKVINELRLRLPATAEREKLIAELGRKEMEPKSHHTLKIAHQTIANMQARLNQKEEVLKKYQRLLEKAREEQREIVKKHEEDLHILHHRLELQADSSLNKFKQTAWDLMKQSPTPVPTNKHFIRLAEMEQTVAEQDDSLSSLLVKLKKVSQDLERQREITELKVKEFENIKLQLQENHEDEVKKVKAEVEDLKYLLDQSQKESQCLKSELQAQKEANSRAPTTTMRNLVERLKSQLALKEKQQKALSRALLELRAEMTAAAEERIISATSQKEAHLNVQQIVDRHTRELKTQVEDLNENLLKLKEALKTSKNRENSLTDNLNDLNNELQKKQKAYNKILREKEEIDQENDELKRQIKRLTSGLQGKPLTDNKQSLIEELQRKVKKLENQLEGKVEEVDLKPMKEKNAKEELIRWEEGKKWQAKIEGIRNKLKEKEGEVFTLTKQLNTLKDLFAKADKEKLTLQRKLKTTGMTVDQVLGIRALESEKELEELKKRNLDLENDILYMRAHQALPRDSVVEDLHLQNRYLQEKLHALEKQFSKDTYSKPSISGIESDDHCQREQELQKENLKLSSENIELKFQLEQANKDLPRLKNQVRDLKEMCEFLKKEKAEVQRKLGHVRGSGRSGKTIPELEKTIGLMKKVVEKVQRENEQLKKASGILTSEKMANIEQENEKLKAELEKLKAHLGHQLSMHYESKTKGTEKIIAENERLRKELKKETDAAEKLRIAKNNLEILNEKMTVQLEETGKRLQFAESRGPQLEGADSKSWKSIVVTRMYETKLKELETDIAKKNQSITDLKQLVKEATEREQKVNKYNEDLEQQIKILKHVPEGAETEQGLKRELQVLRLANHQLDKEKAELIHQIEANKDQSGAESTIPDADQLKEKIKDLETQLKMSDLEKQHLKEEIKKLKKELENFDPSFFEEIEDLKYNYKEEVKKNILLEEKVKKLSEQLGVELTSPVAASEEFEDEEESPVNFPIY
UniProt Q68CZ1: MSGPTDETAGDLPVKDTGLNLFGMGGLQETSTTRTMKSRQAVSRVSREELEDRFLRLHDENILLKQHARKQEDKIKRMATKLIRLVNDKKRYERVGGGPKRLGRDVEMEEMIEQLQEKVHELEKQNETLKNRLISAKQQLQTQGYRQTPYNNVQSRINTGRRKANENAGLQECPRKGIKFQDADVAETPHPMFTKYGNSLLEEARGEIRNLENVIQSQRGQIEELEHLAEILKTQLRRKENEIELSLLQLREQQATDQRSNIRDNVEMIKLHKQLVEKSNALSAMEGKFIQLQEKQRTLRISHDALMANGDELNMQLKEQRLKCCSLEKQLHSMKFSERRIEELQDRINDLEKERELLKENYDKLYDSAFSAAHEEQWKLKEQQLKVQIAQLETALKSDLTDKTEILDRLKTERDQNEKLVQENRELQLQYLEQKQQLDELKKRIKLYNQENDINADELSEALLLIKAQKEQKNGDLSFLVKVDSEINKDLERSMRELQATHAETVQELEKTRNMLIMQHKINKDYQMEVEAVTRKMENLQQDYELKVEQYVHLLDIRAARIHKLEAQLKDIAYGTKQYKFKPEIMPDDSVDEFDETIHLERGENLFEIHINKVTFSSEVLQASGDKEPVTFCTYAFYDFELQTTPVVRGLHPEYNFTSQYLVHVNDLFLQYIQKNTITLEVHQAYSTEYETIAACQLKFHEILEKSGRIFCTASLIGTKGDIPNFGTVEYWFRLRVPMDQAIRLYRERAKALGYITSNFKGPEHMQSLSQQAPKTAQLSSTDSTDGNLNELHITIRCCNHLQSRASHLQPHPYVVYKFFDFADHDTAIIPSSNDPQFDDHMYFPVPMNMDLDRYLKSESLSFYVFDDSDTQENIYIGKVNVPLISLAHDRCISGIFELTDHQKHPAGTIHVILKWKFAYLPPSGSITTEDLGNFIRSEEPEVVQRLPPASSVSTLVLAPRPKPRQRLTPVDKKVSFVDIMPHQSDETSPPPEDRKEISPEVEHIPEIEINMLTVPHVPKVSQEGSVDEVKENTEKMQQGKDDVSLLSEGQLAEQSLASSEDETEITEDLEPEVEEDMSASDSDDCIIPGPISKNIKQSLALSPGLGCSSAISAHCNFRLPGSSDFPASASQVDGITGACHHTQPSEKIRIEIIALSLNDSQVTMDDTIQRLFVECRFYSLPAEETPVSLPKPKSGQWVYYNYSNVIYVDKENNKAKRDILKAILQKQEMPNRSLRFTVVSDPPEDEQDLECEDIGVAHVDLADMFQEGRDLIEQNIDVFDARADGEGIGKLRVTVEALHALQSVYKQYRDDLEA


Key:
Assay in all cases: affinity purification with mass spectrometry
SF-TAP tagged CCDC66 = biological target: T1, SF-TAP tagged CCDC66
[1] = biological target: SF-TAP tagged CSPP1 (TAP bait) (UniProt Q1MSJ5)
[2] = biological target: N-terminally SF-TAP tagged TOGARAM1 (human)

Molecule	binding (SF-TAP tagged CCDC66)	binding [1]	binding [2]
endogenous DYNLL1 (HEK293T) (from UniProt P63167 1-89)	binds	–	–
endogenous CEP290 (HEK293T) (from UniProt O15078 1-2479)	–	binds	–
endogenous RPGRIP1L (HEK293T) (from UniProt Q68CZ1 1-1315)	–	binds	–

Second part, the molecule after the results:

binding (SF-TAP tagged CCDC66)	binding [1]	binding [2]	Molecule
binds	–	binds	endogenous ARMC9 (HEK293T) (protein, UniProt Q7Z3E5 1-818) MGDILAHESELLGLVKEYLDFAEFEDTLKTFSKECKIKGKPLCKTVGGSFRDSKSLTIQKDLVAAFDNGDQKVFFDLWEEHISSSIRDGDSFAQKLEFYLHIHFAIYLLKYSVGRPDKEELDEKISYFKTYLETKGAALSQTTEFLPFYALPFVPNPMVHPSFKELFQDSWTPELKLKLIKFLALISKASNTPKLLTIYKENGQSNKEILQQLHQQLVEAERRSVTYLKRYNKIQADYHNLIGVTAELVDSLEATVSGKMITPEYLQSVCVRLFSNQMRQSLAHSVDFTRPGTASTMLRASLAPVKLKDVPLLPSLDYEKLKKDLILGSDRLKAFLLQALRWRLTTSHPGEQRETVLQAYISNDLLDCYSHNQRSVLQLLHSTSDVVRQYMARLINAFASLAEGRLYLAQNTKVLQMLEGRLKEEDKDIITRENVLGALQKFSLRRPLQTAMIQDGLIFWLVDVLKDPDCLSDYTLEYSVALLMNLCLRSTGKNMCAKVAGLVLKVLSDLLGHENHEIQPYVNGALYSILSVPSIREEARAMGMEDILRCFIKEGNAEMIRQIEFIIKQLNSEELPDGVLESDDDEDEDDEEDHDIMEADLDKDELIQPQLGELSGEKLLTTEYLGIMTNTGKTRRKGLANVQWSGDEPLQRPVTPGGHRNGYPVVEDQHTPPQTAQHARNGHPQALPAAHEAVYREGKPSTPESCVSSSSAIIAKPGEWLPRGRQEEPRPAPTGTPRQPREAPQDPGNGVTTRECASAFTCKPRAPCTPEMLDWNPPKAKASVLAPLFSSCGPQQASRPGSTASSTRGLPSSQSHRK
–	–	binds	endogenous CEP104 (HEK293T) (protein, UniProt O60308 1-925) MPHKIGFVVVSSSGHEDGFSARELMIHAPTVSGWRSPRFCQFPQEIVLQMVERCRIRKLQLLAHQYMISSKIEFYISESLPEYFAPYQAERFRRLGYVSLCDNEKTGCKARELKSVYVDAVGQFLKLIFHQNHVNKYNIYNQVALVAINIIGDPADFSDESNTASREKLIDHYLGHNSEDPALEGTYARKSDYISPLDDLAFDMYQDPEVAQIIRKLDERKREAVQKERYDYAKKLKQAIADLQKVGERLGRYEVEKRCAVEKEDYDLAKEKKQQMEQYRAEVYEQLELHSLLDAELMRRPFDLPLQPLARSGSPCHQKPMPSLPQLEERGTENQFAEPFLQEKPSSYSLTISPQHSAVDPLLPATDPHPKINAESLPYDERPLPAIRKHYGEAVVEPEMSNADISDARRGGMLGEPEPLTEKALREASSAIDVLGETLVAEAYCKTWSYREDALLALSKKLMEMPVGTPKEDLKNTLRASVFLVRRAIKDIVTSVFQASLKLLKMIITQYIPKHKLSKLETAHCVERTIPVLLTRTGDSSARLRVTAANFIQEMALFKEVKSLQIIPSYLVQPLKANSSVHLAMSQMGLLARLLKDLGTGSSGFTIDNVMKFSVSALEHRVYEVRETAVRIILDMYRQHQASILEYLPPDDSNTRRNILYKTIFEGFAKIDGRATDAEMRARRKAATEEAEKQKKEEIKALQGQLAALKEIQAEVQEKESDAVKPKNQDIQGGKAAPAEALGIPDEHYLDNLCIFCGERSESFTEEGLDLHYWKHCLMLTRCDHCKQVVEISSLTEHLLTECDKKDGFGKCYRCSEAVFKEELPRHIKHKDCNPAKPEKLANRCPLCHENFSPGEEAWKAHLMGPAGCTMNLRKTHILQKAPALQPGKSSAVAASGPLGSKAGSKIPTPKGGLSKSSSRTYAKR
–	–	binds	endogenous IFT74 (HEK293T) (protein, UniProt Q96LB3 1-600) MASNHKSSAARPVSRGGVGLTGRPPSGIRPLSGNIRVATAMPPGTARPGSRGCPIGTGGVLSSQIKVAHRPVTQQGLTGMKTGTKGPQRQILDKSYYLGLLRSKISELTTEVNKLQKGIEMYNQENSVYLSYEKRAETLAVEIKELQGQLADYNMLVDKLNTNTEMEEVMNDYNMLKAQNDRETQSLDVIFTERQAKEKQIRSVEEEIEQEKQATDDIIKNMSFENQVKYLEMKTTNEKLLQELDTLQQQLDSQNMKKESLEAEIAHSQVKQEAVLLHEKLYELESHRDQMIAEDKSIGSPMEEREKLLKQIKDDNQEIASMERQLTDTKEKINQFIEEIRQLDMDLEEHQGEMNQKYKELKKREEHMDTFIETFEETKNQELKRKAQIEANIVALLEHCSRNINRIEQISSITNQELKMMQDDLNFKSTEVQKSQSTAQNLTSDIQRLQLDLQKMELLESKMTEEQHSLKSKIKQMTTDLEIYNDLPALKSSGEEKIKKLHQERMILSTHRNAFKKIMEKQNIEYEALKTQLQENETHSQLTNLERKWQHLEQNNFAMKEFIATKSQESDYQPIKKNVTKQIAEYNKTIVDALHSTSGN
